Laboratory results taken from article PMC5484619.
These are yes or no findings as the source states them, for the method shown. In cells and extracts the contact can be indirect. Some binding calls cover weakened binding; strength is not graded here.

Amino acid sequences for entries named in this document (tags omitted). A change or cut given only in a name is not applied to a line headed by its entry.
UniProt Q7Z434: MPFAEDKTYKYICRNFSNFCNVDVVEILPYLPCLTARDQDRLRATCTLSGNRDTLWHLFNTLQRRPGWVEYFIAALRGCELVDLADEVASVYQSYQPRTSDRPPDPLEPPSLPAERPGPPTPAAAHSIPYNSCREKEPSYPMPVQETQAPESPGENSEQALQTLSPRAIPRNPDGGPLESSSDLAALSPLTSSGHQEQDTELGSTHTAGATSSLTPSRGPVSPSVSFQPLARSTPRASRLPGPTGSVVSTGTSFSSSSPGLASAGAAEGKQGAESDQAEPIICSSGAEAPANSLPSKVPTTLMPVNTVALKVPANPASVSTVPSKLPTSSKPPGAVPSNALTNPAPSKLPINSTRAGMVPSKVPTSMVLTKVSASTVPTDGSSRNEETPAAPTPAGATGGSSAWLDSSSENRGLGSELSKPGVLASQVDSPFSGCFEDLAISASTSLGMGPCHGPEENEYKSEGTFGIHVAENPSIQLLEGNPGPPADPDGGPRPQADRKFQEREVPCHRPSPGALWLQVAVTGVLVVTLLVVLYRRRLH
UniProt Q14258: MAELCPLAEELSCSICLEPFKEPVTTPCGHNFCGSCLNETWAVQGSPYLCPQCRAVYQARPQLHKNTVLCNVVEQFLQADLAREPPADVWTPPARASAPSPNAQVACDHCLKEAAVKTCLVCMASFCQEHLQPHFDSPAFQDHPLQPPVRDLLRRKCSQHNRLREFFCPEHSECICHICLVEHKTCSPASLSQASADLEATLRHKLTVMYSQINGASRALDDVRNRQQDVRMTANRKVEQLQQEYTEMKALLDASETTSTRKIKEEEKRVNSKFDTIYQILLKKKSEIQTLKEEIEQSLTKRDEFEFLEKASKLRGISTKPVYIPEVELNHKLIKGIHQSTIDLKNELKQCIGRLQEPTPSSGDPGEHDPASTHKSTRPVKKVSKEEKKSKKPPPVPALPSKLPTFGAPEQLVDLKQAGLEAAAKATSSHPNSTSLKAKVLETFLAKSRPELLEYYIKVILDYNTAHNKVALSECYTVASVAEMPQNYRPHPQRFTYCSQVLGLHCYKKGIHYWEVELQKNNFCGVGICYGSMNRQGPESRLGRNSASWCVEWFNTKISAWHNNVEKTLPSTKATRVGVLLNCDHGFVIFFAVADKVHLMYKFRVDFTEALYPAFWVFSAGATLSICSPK
UniProt P17742: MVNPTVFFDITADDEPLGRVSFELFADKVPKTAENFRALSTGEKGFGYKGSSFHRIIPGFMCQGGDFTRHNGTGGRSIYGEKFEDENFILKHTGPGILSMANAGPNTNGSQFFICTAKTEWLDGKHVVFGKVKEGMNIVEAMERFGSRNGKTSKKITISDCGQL
UniProt Q61510: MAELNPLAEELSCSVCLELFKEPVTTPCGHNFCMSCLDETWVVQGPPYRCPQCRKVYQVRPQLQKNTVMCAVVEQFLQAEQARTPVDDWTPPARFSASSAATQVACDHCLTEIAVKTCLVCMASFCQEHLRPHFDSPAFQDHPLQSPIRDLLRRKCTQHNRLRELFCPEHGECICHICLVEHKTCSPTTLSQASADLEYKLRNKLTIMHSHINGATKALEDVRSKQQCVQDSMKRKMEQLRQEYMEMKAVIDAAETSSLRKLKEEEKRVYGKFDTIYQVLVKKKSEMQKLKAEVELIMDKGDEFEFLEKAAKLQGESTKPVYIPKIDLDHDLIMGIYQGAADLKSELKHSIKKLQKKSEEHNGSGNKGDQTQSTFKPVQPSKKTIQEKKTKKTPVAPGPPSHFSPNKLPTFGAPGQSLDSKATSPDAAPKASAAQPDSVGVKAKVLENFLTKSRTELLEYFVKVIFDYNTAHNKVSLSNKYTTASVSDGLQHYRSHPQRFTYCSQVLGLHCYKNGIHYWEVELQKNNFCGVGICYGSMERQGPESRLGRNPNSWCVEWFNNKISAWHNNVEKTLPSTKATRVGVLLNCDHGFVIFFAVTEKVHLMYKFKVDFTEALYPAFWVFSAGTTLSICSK

Tests used:
Flag-MAVS = Flag-MAVS (UniProt Q7Z434); test: co-IP; 293T/CypA+ or 293T/CypA- cells transfected for 24 hr with tagged constructs; lysis in 0.5% NP40, 150 mM NaCl, 20 mM HEPES pH 7.4, 10% glycerol, 1 mM EDTA; anti-Flag beads 4 hr at 4°C; five washes with 300 mM NaCl; immunoblot; some panels with or without co-expressed CypA or TRIM25
[1] = target: T1, endogenous RIG-I of mouse BMDMs (mouse (endogenous in BMDMs)) (UniProt Q6Q899); test: co-IP; endogenous proteins; WT (and Ppia-/-) mouse BMDMs infected with SeV for 6 hr; immunoprecipitation with anti-CypA or anti-RIG-I antibodies or control mouse IgG, Protein A/G PLUS-Agarose beads; immunoblot
T1 sequence: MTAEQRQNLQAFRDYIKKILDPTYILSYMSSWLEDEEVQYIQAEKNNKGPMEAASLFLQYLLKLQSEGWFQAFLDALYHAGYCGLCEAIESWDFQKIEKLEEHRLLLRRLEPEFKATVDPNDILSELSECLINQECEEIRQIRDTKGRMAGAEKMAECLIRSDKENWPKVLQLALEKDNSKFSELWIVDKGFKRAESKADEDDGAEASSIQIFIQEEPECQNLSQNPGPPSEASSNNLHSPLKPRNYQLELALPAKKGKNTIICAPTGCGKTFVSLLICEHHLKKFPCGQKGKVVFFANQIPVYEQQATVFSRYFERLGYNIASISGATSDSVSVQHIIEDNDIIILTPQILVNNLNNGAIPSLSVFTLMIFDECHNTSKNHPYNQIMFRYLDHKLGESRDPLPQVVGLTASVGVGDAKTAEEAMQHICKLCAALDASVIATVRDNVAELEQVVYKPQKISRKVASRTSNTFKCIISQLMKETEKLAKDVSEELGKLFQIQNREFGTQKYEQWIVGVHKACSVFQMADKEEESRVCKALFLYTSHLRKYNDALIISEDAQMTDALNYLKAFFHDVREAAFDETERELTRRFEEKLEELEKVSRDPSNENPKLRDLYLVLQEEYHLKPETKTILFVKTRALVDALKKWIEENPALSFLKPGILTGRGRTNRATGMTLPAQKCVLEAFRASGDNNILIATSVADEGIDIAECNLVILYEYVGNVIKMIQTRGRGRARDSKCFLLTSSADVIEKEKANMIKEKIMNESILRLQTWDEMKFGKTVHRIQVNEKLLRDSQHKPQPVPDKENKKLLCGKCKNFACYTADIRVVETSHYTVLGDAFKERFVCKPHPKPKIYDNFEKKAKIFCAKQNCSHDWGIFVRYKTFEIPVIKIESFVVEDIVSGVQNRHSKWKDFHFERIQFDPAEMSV

Flag-TRIM25 = Flag-TRIM25 (UniProt Q14258); test: co-IP; 293T/CypA+ or 293T/CypA- cells transfected for 24 hr with tagged constructs; lysis in 0.5% NP40, 150 mM NaCl, 20 mM HEPES pH 7.4, 10% glycerol, 1 mM EDTA; anti-Flag beads 4 hr at 4°C; five washes with 300 mM NaCl; immunoblot; some panels with or without co-expressed CypA or TRIM25
[2] = target: endogenous CypA of mouse BMDMs (mouse (endogenous in BMDMs)) (UniProt P17742); test: co-IP; endogenous proteins; WT (and Ppia-/-) mouse BMDMs infected with SeV for 6 hr; immunoprecipitation with anti-CypA or anti-RIG-I antibodies or control mouse IgG, Protein A/G PLUS-Agarose beads; immunoblot

Myc-TRIM25 (from UniProt Q14258 1-630) (enzyme)
binding (Flag-MAVS): binds

endogenous TRIM25 of mouse BMDMs (from UniProt Q61510 1-634) (enzyme)
binding [1]: binds

HA-tagged deletion construct of MAVS, amino acids 360-540 (from UniProt Q7Z434 360-540) (domain or fragment)
binding (Flag-TRIM25): binds

B1: endogenous RIG-I of mouse BMDMs (protein, UniProt Q6Q899 1-926)
chain: MTAEQRQNLQAFRDYIKKILDPTYILSYMSSWLEDEEVQYIQAEKNNKGPMEAASLFLQYLLKLQSEGWFQAFLDALYHAGYCGLCEAIESWDFQKIEKLEEHRLLLRRLEPEFKATVDPNDILSELSECLINQECEEIRQIRDTKGRMAGAEKMAECLIRSDKENWPKVLQLALEKDNSKFSELWIVDKGFKRAESKADEDDGAEASSIQIFIQEEPECQNLSQNPGPPSEASSNNLHSPLKPRNYQLELALPAKKGKNTIICAPTGCGKTFVSLLICEHHLKKFPCGQKGKVVFFANQIPVYEQQATVFSRYFERLGYNIASISGATSDSVSVQHIIEDNDIIILTPQILVNNLNNGAIPSLSVFTLMIFDECHNTSKNHPYNQIMFRYLDHKLGESRDPLPQVVGLTASVGVGDAKTAEEAMQHICKLCAALDASVIATVRDNVAELEQVVYKPQKISRKVASRTSNTFKCIISQLMKETEKLAKDVSEELGKLFQIQNREFGTQKYEQWIVGVHKACSVFQMADKEEESRVCKALFLYTSHLRKYNDALIISEDAQMTDALNYLKAFFHDVREAAFDETERELTRRFEEKLEELEKVSRDPSNENPKLRDLYLVLQEEYHLKPETKTILFVKTRALVDALKKWIEENPALSFLKPGILTGRGRTNRATGMTLPAQKCVLEAFRASGDNNILIATSVADEGIDIAECNLVILYEYVGNVIKMIQTRGRGRARDSKCFLLTSSADVIEKEKANMIKEKIMNESILRLQTWDEMKFGKTVHRIQVNEKLLRDSQHKPQPVPDKENKKLLCGKCKNFACYTADIRVVETSHYTVLGDAFKERFVCKPHPKPKIYDNFEKKAKIFCAKQNCSHDWGIFVRYKTFEIPVIKIESFVVEDIVSGVQNRHSKWKDFHFERIQFDPAEMSV
binding [2]: binds

B2: endogenous MAVS of mouse BMDMs (protein, UniProt Q8VCF0 1-503)
chain: MTFAEDKTYKYIRDNHSKFCCVDVLEILPYLSCLTASDQDRLRASYRQIGNRDTLWGLFNNLQRRPGWVEVFIRALQICELPGLADQVTRVYQSYLPPGTSLRSLEPLQLPDFPAAVSGPSAFAPGHNIPDHGLRETPSCPKPVQDTQPPESPVENSEQLLQTNSGAVARMSGGSLIPSPNQQALSPQPSREHQEQEPELGGAHAANVASVPIATYGPVSPTVSFQPLPRTALRTNLLSGVTVSALSADTSLSSSSTGSAFAKGAGDQAKAATCFSTTLTNSVTTSSVPSPRLVPVKTMSSKLPLSSKSTAAMTSTVLTNTAPSKLPSNSVYAGTVPSRVPASVAKAPANTIPPERNSKQAKETPEGPATKVTTGGNQTGPNSSIRSLHSGPEMSKPGVLVSQLDEPFSACSVDLAISPSSSLVSEPNHGPEENEYSSFRIQVDESPSADLLGSPEPLATQQPQEEEEHCASSMPWAKWLGATSALLAVFLAVMLYRSRRLAQ
binding [2]: binds
